Measurements taken from the supplement of paper PMC7125110.
± gives the standard error. Many of these values have a large error.

B1: glmS ribozyme (parent)
chain: AUAAAAGCGCCAGAACUACAGAAAUGUAGUUGACGAGGAGGAGGUUUAUCGAAUUUUCGGCGGAUGCCUCCAAA

Variants of: B1
Experiment: KM; higher = weaker cofactor use; RNA array
Conditions: with glucosamine-6-phosphate
In short: (§1)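 A hybridised Cy3 probe tracked barcoded ribozyme variants, transcribed in situ by E. coli RNA polymerase on sequenced MiSeq chips, at 37 °C. The variants received 40 μM to 10 mM glucosamine-6-phosphate in HEPES/KCl/Mg(OAc)2 buffer. kobs came from decay fits and kcat and KM from weighted Michaelis–Menten fits.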

Variant	KM
G40A G41A	486 ± 460 µM
G40A G41C	1010 ± 630 µM
A39G G66A	2510 ± 1600 µM
A39G G66C	3270 ± 2000 µM
G51A G60U	214 ± 190 µM
A14C C16A	548 ± 390 µM
A14U A39G	2730 ± 1800 µM
A39G A53C	4280 ± 2600 µM
A53U C71G	85.2 ± 54 µM
A14C C71G	3120 ± 2400 µM
C16G A33C	539 ± 390 µM
C16U A48G	1020 ± 760 µM
U56A C71U	4940 ± 3700 µM
A36U U55A C61A	57.8 ± 29 µM
A53C C71A	1610 ± 520 µM
A14U U57C	1310 ± 930 µM
U46C U47A	2210 ± 1400 µM
G66A U69A	438 ± 250 µM
C19A G40C	832 ± 360 µM
G32U A53C	2210 ± 2100 µM
C16A A53G	1640 ± 990 µM
C10A C67G	81.7 ± 67 µM
C16G G32C	4550 ± 1400 µM

Fetched one by one from the list above:
Variant	KM
G40A G41A	486 ± 460 µM
A53U C71G	85.2 ± 54 µM
A53C C71A	1610 ± 520 µM
A14C C71G	3120 ± 2400 µM
C16G A33C	539 ± 390 µM
A14U U57C	1310 ± 930 µM

Going on with the list.

Variant	KM
U31C A53G C70U	620 ± 200 µM
G38A G62U	14.5 ± 8.2 µM
A33U G41U	361 ± 290 µM
G29U C71G	583 ± 350 µM
A12G A52G A53G	6940 ± 5000 µM
A12C C16U	1120 ± 630 µM
C11U A39C	4650 ± 1100 µM
A12U C16A A33U A36C G38A G62A U69A C71U	26.2 ± 16 µM
G37A C67G	744 ± 550 µM
G9A C67G	185 ± 120 µM
A42U A48U A64U C68U	11.3 ± 3.5 µM
G13A C16A	14000 ± 570 µM
G29A A48U	110000 ± 30000 µM
A53C C58A	3200 ± 2400 µM
G40A C58U	25300 ± 14000 µM
A6U G13A	29.9 ± 24 µM
U54A U56G	1740 ± 650 µM
A39U G66C	6420 ± 2800 µM
A14U U54A	1560 ± 560 µM
A6U U69C	380 ± 200 µM
G43C C68A	1040 ± 730 µM
A14C G44C C67G	2580 ± 1700 µM
G21A	330 ± 170 µM

Variant	KM
U47A U69A	36.8 ± 33 µM
A48C A53U	2410 ± 320 µM
C11U A42G	3690 ± 2100 µM
G29C A64G	1550 ± 1100 µM
C67A C71U	638 ± 350 µM
U56C G60A	1070 ± 61 µM
G37C G38U	103 ± 65 µM
U30G C71U	3100 ± 2900 µM
G38C C71U	26.8 ± 19 µM
U31G C71A	231 ± 220 µM
U47C A52U	3930 ± 1200 µM
A15G C58G	10400 ± 4100 µM
G35A G38A	26.3 ± 18 µM
U55G U69A	124 ± 100 µM
A6G C11A	29300 ± 12000 µM
U30C C68U	1210 ± 270 µM
A42U G66C	21400 ± 17000 µM
G38A U54A	239 ± 140 µM
A12C A15U C16U C70U	514 ± 130 µM
U31G G40U	2730 ± 500 µM
G13U C61A	158 ± 120 µM
G32U C71G	741 ± 280 µM
U30G A52G	2430 ± 620 µM

Variant	KM
A33U G66A	2790 ± 180 µM
G13U U56G	2720 ± 820 µM
A39C U47G	2130 ± 1600 µM
G37C A42G	1800 ± 940 µM
C16G G66U	2380 ± 200 µM
A12G G29C	3980 ± 3000 µM
G13A C71U	4730 ± 920 µM
C67G U69C	958 ± 170 µM
A12G A42U	20200 ± 1600 µM
G32A G66A	6290 ± 1700 µM
A42U C71U	1320 ± 400 µM
G41A G66A	2930 ± 2100 µM
U47G U65C	1420 ± 900 µM
G26U U65G	4570 ± 1200 µM
U30A A39U	1480 ± 1000 µM
A14C A48C	992 ± 920 µM
U49G A53U	4490 ± 760 µM
G32A U54C	5430 ± 2900 µM
C16G C61U C67U	30.7 ± 22 µM
G44A C67A	3330 ± 2100 µM
A14C U31A	666 ± 410 µM
G32A G60C	183 ± 55 µM
G29U U54C	1540 ± 590 µM

Reformatted bar-delimited: part of the list above
Variant | KM
A14U A39G | 2730 ± 1800 µM
A39G A53C | 4280 ± 2600 µM
A53U C71G | 85.2 ± 54 µM
A14C C71G | 3120 ± 2400 µM
C16G A33C | 539 ± 390 µM
C16U A48G | 1020 ± 760 µM

(continued)

Variant	KM
U46A U47C	2240 ± 840 µM
A53G U65C	2440 ± 2400 µM
A39G C70U	1280 ± 1000 µM
U31A U47G C70U	518 ± 480 µM
G40C A48U	37600 ± 14000 µM
U54A C70G	68.2 ± 58 µM
A53U U55C	1970 ± 1400 µM
U54G U56C	4870 ± 4700 µM
G37A U47G	1250 ± 600 µM
A12G C16U	9760 ± 5800 µM
G40U U54A	508 ± 500 µM
C34A G51C	246 ± 210 µM
A42G U55C	895 ± 430 µM
G29U A53G	2380 ± 1500 µM
G13C G66U	766 ± 350 µM
A6U U46A	51700 ± 8700 µM
G13A A42C	16.9 ± 12 µM
A39G G44C	2450 ± 660 µM
C16U A64G	1550 ± 830 µM
U30G A53U	1690 ± 860 µM
U49G U65G	6050 ± 1500 µM
C10U C11U	15200 ± 12000 µM

Variants of: B1
Experiment: self-cleavage kobs at 10000 uM GlcN6P; higher = faster cleavage; RNA array
Conditions: with glucosamine-6-phosphate
In short: as §1

Variant	self-cleavage kobs at 10000 uM GlcN6P
A39G G66C	0.0019 ± 0.001 s⁻¹
C50G G66C	2.08e-05 ± 1.5e-05 s⁻¹
C10A C67G	0.00069 ± 0.00038 s⁻¹
U2A C50G	2.62e-05 ± 1.8e-05 s⁻¹
A12G A52G A53G	1.49e-05 ± 1.2e-05 s⁻¹
G40A C58U	1.3e-05 ± 8.9e-06 s⁻¹
A36U C61G C70G	2.02e-05 ± 2e-05 s⁻¹
A14C U31A	0.0407 ± 0.024 s⁻¹
A6U U46A	1.86e-05 ± 9.9e-06 s⁻¹
C10U C11U	1.24e-05 ± 1.1e-05 s⁻¹

Variants of: B1
Experiment: kcat; higher = faster cleavage; RNA array
Conditions: with glucosamine-6-phosphate
In short: as §1

Variant	kcat
U31G A48U	9.2e-05 ± 5.6e-05 s⁻¹
A39G A53C	0.0214 ± 0.011 s⁻¹
C50G G66C	3.21e-05 ± 1.9e-05 s⁻¹
U56A C71U	0.0254 ± 0.017 s⁻¹
A33U U69G	5.59e-05 ± 4.2e-05 s⁻¹
G32U U65G G66C	1.45e-05 ± 8.6e-06 s⁻¹
A48U A53C C68G C71G	4.41e-05 ± 3.4e-05 s⁻¹
A36C C50G U54A G60U	2.45e-05 ± 1.8e-05 s⁻¹
C16U C61G C67A	2.72e-05 ± 6.4e-06 s⁻¹
C34G C50G G59A C67G	4.06e-05 ± 2.9e-05 s⁻¹
C50U U57A C68A U69G C71G	4.02e-05 ± 2.5e-05 s⁻¹
G38A C71U	< 1e-05 s⁻¹
C58G A64C C67U	3.63e-05 ± 2.4e-05 s⁻¹
G59U C70G	2.04e-05 ± 1.7e-05 s⁻¹
U30G C71U	0.0102 ± 0.0073 s⁻¹
U31G C71A	0.000697 ± 0.00041 s⁻¹

Variant	kcat
A33U A53C	< 1e-05 s⁻¹
U30C C68U	0.000128 ± 8.6e-06 s⁻¹
A42U G66C	2.02e-05 ± 1.1e-05 s⁻¹
G32U A39G	0.00159 ± 0.0016 s⁻¹
C67G U69C	0.00123 ± 0.00012 s⁻¹
U30A A39U	0.00467 ± 0.0022 s⁻¹
A53G U65C	0.000702 ± 0.00037 s⁻¹
A39G C70U	0.0226 ± 0.013 s⁻¹
U31A U47G C70U	0.00121 ± 0.00064 s⁻¹
A53U U55C	0.016 ± 0.0084 s⁻¹
U54G U56C	0.00516 ± 0.004 s⁻¹
G40U U54A	0.000873 ± 0.00056 s⁻¹
G29U A53G	0.00448 ± 0.0019 s⁻¹
U54G C61A	< 1e-05 s⁻¹
A39G G44C	0.000507 ± 6.5e-05 s⁻¹

Variants of: B1
Experiment: self-cleavage kobs at 40 uM GlcN6P; higher = faster cleavage; RNA array
Conditions: with glucosamine-6-phosphate
In short: as §1

Variant	self-cleavage kobs at 40 uM GlcN6P
C50G G66C	2.61e-05 ± 1.7e-05 s⁻¹
A14C C71G	3.44e-05 ± 2.2e-05 s⁻¹
A14C C58U C70G	2.65e-05 ± 2.1e-05 s⁻¹
C10A C67A C68A	2.91e-05 ± 2.3e-05 s⁻¹
G13C A53G	0.00349 ± 0.0035 s⁻¹
A15U C16A	1.65e-05 ± 1.2e-05 s⁻¹
U2A C50G	3.27e-05 ± 2.3e-05 s⁻¹
A12C C16A	1.12e-05 ± 1e-05 s⁻¹
C11U A39C	2.25e-05 ± 1.4e-05 s⁻¹
G7U A15U C50G A53U U55G G62U	0.000122 ± 6.2e-05 s⁻¹
U47A U69A	4.51e-05 ± 2.4e-05 s⁻¹
C16A U47A	2.21e-05 ± 1.4e-05 s⁻¹
A36U C61G C70G	3.09e-05 ± 1.8e-05 s⁻¹
A36U G37C C50U U57A U69G	5e-05 ± 2.6e-05 s⁻¹
G13U U56G	2.28e-05 ± 1.2e-05 s⁻¹
A39C U47G	3.44e-05 ± 2.3e-05 s⁻¹
G13A C71U	1.03e-05 ± 9.7e-06 s⁻¹
G32A G66A	3e-05 ± 1.9e-05 s⁻¹
U31A U45C	3.15e-05 ± 1.7e-05 s⁻¹
C34U G38A C70G	4.25e-05 ± 3.2e-05 s⁻¹
U49G A53U	1.06e-05 ± 1e-05 s⁻¹
C11U A14G C70G	5.52e-05 ± 3.1e-05 s⁻¹
U31G C67G	2.06e-05 ± 1.5e-05 s⁻¹
A12G C16U	1.97e-05 ± 1.6e-05 s⁻¹
C11U A52C C68U C71G	3.79e-05 ± 2.5e-05 s⁻¹

Variants of: B1
Experiment: self-cleavage kobs at 2500 uM GlcN6P; higher = faster cleavage; RNA array
Conditions: with glucosamine-6-phosphate
In short: as §1

Variant	self-cleavage kobs at 2500 uM GlcN6P
C50G G66C	4e-05 ± 2.2e-05 s⁻¹
A33U U69G	3.76e-05 ± 1.9e-05 s⁻¹
A36C C50G U54A G60U	2.38e-05 ± 2.3e-05 s⁻¹
C16U C61G C67A	3.2e-05 ± 2.8e-05 s⁻¹
C50U U57A C68A U69G C71G	7.07e-05 ± 4.4e-05 s⁻¹
C58G A64C C67U	2.73e-05 ± 2.5e-05 s⁻¹
G59U C70G	2.26e-05 ± 1.5e-05 s⁻¹
G40C A48U	1.46e-05 ± 1.1e-05 s⁻¹

Variants of: B1
Experiment: self-cleavage kobs at 160 uM GlcN6P; higher = faster cleavage; RNA array
Conditions: with glucosamine-6-phosphate
In short: as §1

Variant	self-cleavage kobs at 160 uM GlcN6P
C16U A48G	1.69e-05 ± 1.7e-05 s⁻¹
C10A C67G	0.000247 ± 0.00015 s⁻¹
C11U A39C	2.23e-05 ± 1.6e-05 s⁻¹
C58G A64C C67U	2.95e-05 ± 2.2e-05 s⁻¹
G32U A39G	2.96e-05 ± 2.1e-05 s⁻¹
A42U C71U	1.73e-05 ± 1.6e-05 s⁻¹
U31A U45C	4.82e-05 ± 2.6e-05 s⁻¹
A53G U65C	2.87e-05 ± 1.9e-05 s⁻¹

Looked up above:
Value for C11U A39C under self-cleavage kobs at 160 uM GlcN6P: 2.23e-05 ± 1.6e-05 s⁻¹
Value for A42U C71U under self-cleavage kobs at 160 uM GlcN6P: 1.73e-05 ± 1.6e-05 s⁻¹
Value for G32U A39G under self-cleavage kobs at 160 uM GlcN6P: 2.96e-05 ± 2.1e-05 s⁻¹

Variants of: B1
Experiment: self-cleavage kobs at 640 uM GlcN6P; higher = faster cleavage; RNA array
Conditions: with glucosamine-6-phosphate
In short: as §1

Variant	self-cleavage kobs at 640 uM GlcN6P
C34G C50G G59A C67G	2.36e-05 ± 2.3e-05 s⁻¹
G13A C16A	1.46e-05 ± 9.7e-06 s⁻¹
A53C C58A	2.32e-05 ± 1.5e-05 s⁻¹
A15G C58G	1.91e-05 ± 1e-05 s⁻¹
